Data as given in PubChem BioAssay AID504834 (National Center for Advancing Translational Sciences (NCATS), 2011).
Screen size: about 320,000 compounds; about 22,000 (6.9%) were called active. The shares of active, inactive and inconclusive entries below differ from those in the screen. Calls follow the shape of the dose curve; as a rule, active = well fitted inhibition curve with a large enough effect; inconclusive = small, poorly fitted or top-dose-only effect, or another doubt; inactive = no such curve, though single readings can be large or run the other way. Potencies beside an inconclusive call are fits to weak or partial responses and may not hold up.

Assay: Primary qHTS for delayed death inhibitors of the malarial parasite plastid, 96 hour incubation
Conditions: P. falciparum luciferase reporter growth; series mostly up to 28.7 µM
Procedure, shortened: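 Readout is luminescence from an integrated firefly luciferase in P. falciparum. Red cells, 2% hematocrit and 0.05% parasitemia final, were cultured with compound through two parasite generations (96 hours) at 37 C, 5% CO2.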
Potency is read from the fitted curve at half-maximal effect.

Row | SMILES | Potency
1 | CCN(CC(=O)Nc1ccc2c(c1)OCCO2)C(=O)/C=C/c1cccc(OC)c1OC | inactive
2 | CCCCN(C(=O)CSc1nnnn1-c1ccccc1OC)C1CCS(=O)(=O)C1 (configuration not stated) | inconclusive: 9.28 µM [inhibitor, partial curve, poor fit]
3 | O=C1Nc2ccccc2N(O)N1c1ccc(S(=O)(=O)N2CCCCCC2)cc1 | inactive
4 | CC[C@]1(c2ccccc2C)ON(c2ccccc2C(F)(F)F)C1=O | inconclusive: 2.62 µM [inhibitor, partial curve, poor fit]
5 | COc1cc(C#N)c(NC(=O)CN2CCN(CCO)CC2)cc1OC | inactive
6 | Cc1nn(CCc2nn[nH]n2)c2nc(-c3ccc(Br)cc3)cc(C(F)(F)F)c12 | inconclusive: 11.7 µM [inhibitor, partial curve]
7 | Cc1ccc(C(=O)N2CCC3(CC2)Oc2ccc(F)cc2C(=O)C32CC(c3ccc(Cl)cc3)=NO2)s1 (configuration not stated) | inconclusive: 1.65 µM [inhibitor, full curve]
8 | O=C(Nc1ccc(Oc2c(F)c(F)c(F)c(F)c2F)cc1)OC1CCN2Cc3ccccc3N=C12 (configuration not stated) | active: 2.62 µM
9 | C[C@H](NCCc1ccc(O)cc1)[C@@H](O)c1ccc(O)cc1 | inactive
10 | CCN(c1ccccc1)S(=O)(=O)c1ccc(C(=O)N(CCN(C)C)c2nc3c(F)cc(F)cc3s2)cc1 | inconclusive: 14.7 µM [inhibitor, single point]
11 | COc1cc(C2CC(c3ccccc3)=NN2c2ccccc2)ccc1OCC(=O)O (configuration not stated) | inconclusive: 8.28 µM [inhibitor, partial curve, poor fit]
12 | Cc1ccc(N(CC(O)CN2C(=O)NC(C)(C)C2=O)S(=O)(=O)c2ccc([N+](=O)[O-])cc2)cc1 (configuration not stated) | inconclusive: 18.5 µM [inhibitor, partial curve, poor fit]
13 | CCOc1cc(/C=C2\CCCc3c2nc2ccccc2c3C(=O)O)ccc1OC | inactive
14 | COc1ccc(/C=N/n2cc(-c3ccc(OC)cc3)nc2N)cc1 | inconclusive: 10.4 µM [inhibitor, partial curve]
15 | COc1cc2c(cc1OC)/C(=C/C(=O)c1ccc(C)cc1)NCC2 | inconclusive: 11.7 µM [inhibitor, single point]
16 | Cc1ccc(S(=O)(=O)NNC(=O)c2ccc(NC(=O)C3CC3)cc2)cc1 | inconclusive: 18.5 µM [inhibitor, single point]
17 | Cc1ccc(NC(Cc2cc(C)no2)c2ccccc2)cc1 (configuration not stated) | inconclusive: 6.57 µM [inhibitor, partial curve, poor fit]
18 | CCCCc1nc2cc(C(=O)N3CCCC3)ccc2o1 | inactive
19 | COC(=O)c1ccc(NC(=O)CN2CCN(S(=O)(=O)c3cc(Cl)ccc3OC)CC2)cc1 | inconclusive: 5.86 µM [inhibitor, single point]
20 | CCCc1cc(=O)oc2c(C)c(OCC(=O)N3CCC(C(=O)O)CC3)ccc12 | inconclusive: 11.7 µM [inhibitor, single point]
21 | Cc1cccc(NC(=O)CNC(=O)c2cccc(-n3cccc3)c2)c1C | inactive
22 | Nc1[nH]n2c(=O)cc(-c3ccccc3)nc2c1N=Nc1ccc2c(c1)OCO2 | inactive
23 | C[C@]12C=CC(=O)N[C@@H]1CC[C@@H]1C2CC[C@]2(C)C(C(=O)Nc3cc(C(F)(F)F)ccc3C(F)(F)F)CC[C@@H]12 (some centres not stated) | active: 3.38 µM
24 | CC1C(=O)N(Cc2cccc(F)c2)c2ccccc2N1C(=O)c1ccccc1 (configuration not stated) | inconclusive: 3.7 µM [inhibitor, partial curve]

Looked up above:
Value for Cc1ccc(NC(Cc2cc(C)no2)c2ccccc2)cc1 (configuration not stated) under Potency: inconclusive: 6.57 µM [inhibitor, partial curve, poor fit]
Value for CCCc1cc(=O)oc2c(C)c(OCC(=O)N3CCC(C(=O)O)CC3)ccc12 under Potency: inconclusive: 11.7 µM [inhibitor, single point]
Value for Cc1cccc(NC(=O)CNC(=O)c2cccc(-n3cccc3)c2)c1C under Potency: inactive

(list continues)

Row | SMILES | Potency
25 | CC(=O)Nc1ccc(S(=O)(=O)N(C)CC(=O)N/N=C/c2ccncc2)cc1 | inactive
26 | CCC(C)C(NC(=O)c1ccccc1NC(=O)c1ccc(OC)cc1)C(=O)NCc1ccco1 (configuration not stated) | inconclusive: 9.28 µM [inhibitor, single point]
27 | O=C(COc1ccc(Cc2ccccc2)cc1)c1ccc(F)cc1 | active: 5.22 µM
28 | COc1cc(NC(=S)N2CCCC(C)C2)c(OC)cc1Cl (configuration not stated) | inactive
29 | COc1ccc(Cl)cc1N1C(=O)CC(Sc2ccccc2N)C1=O (configuration not stated) | inactive
30 | Cc1ccc(NC(=O)N2CCN(C(=O)c3ccco3)CC2)cc1Cl | inactive
31 | Cc1ccccc1N(C)S(=O)(=O)c1nnc(NC(=O)c2ccco2)s1 | inconclusive: 4.65 µM [inhibitor, partial curve]
32 | CCN(CC)S(=O)(=O)c1cccc(NC(=O)COc2ccc(F)cc2Br)c1 | inconclusive: 18.5 µM [inhibitor, single point]
33 | O=C(CCCn1c(SCc2cccc(F)c2)nc2ccccc2c1=O)NCC1CCCO1 (configuration not stated) | inconclusive: 10.4 µM [inhibitor, single point]
34 | Cc1ccc(S(=O)(=O)N(C)c2ccc(C(=O)N(CC(C)C)C3CCS(=O)(=O)C3)cc2)cc1 (configuration not stated) | inconclusive: 18.5 µM [inhibitor, single point]
35 | CCOC(=O)Cc1csc(/N=C/c2c(O)n(-c3ccccc3C(F)(F)F)c(=O)c3ccccc23)n1 | inactive
36 | Cc1cccc(S(=O)(=O)Nc2nc3ccccc3nc2NCc2ccco2)c1 | inconclusive: 11.7 µM [inhibitor, single point]
37 | CCCCc1ccc(-n2c(Cc3cccs3)n[nH]c2=S)cc1 | inconclusive: 4.15 µM [inhibitor, single point]
38 | CC(=O)c1ccc(OCC(O)Cn2nnc3ccccc32)cc1 (configuration not stated) | inactive
39 | COCCNC(=O)C(c1ccc(O)cc1)N(Cc1ccccc1)C(=O)CCC(=O)Nc1nccs1 (configuration not stated) | inactive
40 | COc1ccc(N(C)S(=O)(=O)c2c(C)[nH]c(=O)[nH]c2=O)c(OC)c1 | active: 6.57 µM
41 | CCOC(=O)c1ccc(NC(=S)NCc2ccc(S(N)(=O)=O)cc2)cc1 | inconclusive: 13.1 µM [inhibitor, partial curve, poor fit]
42 | C=CCN(CC=C)C(=O)Cn1cnc([N+](=O)[O-])n1 | inconclusive: 3.7 µM [inhibitor, single point]
43 | COc1ccc(-c2cc(C(=O)Nc3cc(C)ccc3O)no2)cc1 | active: 3.29 µM
44 | Cc1ccc(C(C#N)c2ccc(Cl)nn2)cc1 (configuration not stated) | inconclusive: 5.22 µM [inhibitor, partial curve, poor fit]
45 | Cc1ccc(N2CC(C(=O)OCc3nc(N)nc(Nc4ccccc4C)n3)CC2=O)cc1 (configuration not stated) | inactive
46 | CCOc1ncccc1C(=O)N1CCN(S(=O)(=O)c2ccc3c(c2)OCCO3)CC1 | inconclusive: 8.28 µM [inhibitor, single point]
47 | Cc1ccc(N(Cc2cc3ccc(C)cc3[nH]c2=O)S(C)(=O)=O)c(C)c1 | inactive
48 | Cc1ccc2c(c1)C1CN(C)CCC1N2S(=O)(=O)c1ccccc1F (configuration not stated) | inconclusive: 10.4 µM [inhibitor, partial curve]

Row | SMILES | Potency
49 | CC1(C)CC(=O)C(C=Nc2cc(C(=O)c3ccccc3)ccc2N)=C(O)C1 | inactive
50 | CCc1nc2ccccc2n1CCc1ccccc1 | inactive
51 | CC(C)CN(C(=O)COC(=O)Cc1n[nH]c(=O)c2ccccc12)C1CCS(=O)(=O)C1 (configuration not stated) | inconclusive: 9.28 µM [inhibitor, partial curve]
52 | CCn1ncc(Br)c1C(=O)Nc1ccc(OC(F)(F)F)cc1 | inactive
53 | CCOc1ccc(Nc2nc(Cl)nc(N3CCN(c4ccc(OC)cc4)CC3)n2)cc1 | inconclusive: 18.5 µM [inhibitor, single point]
54 | N#Cc1c(N2CCCC2)nc(N)c2c(N)nc(N3CCCC3)cc12 | inconclusive: 4.65 µM [inhibitor, single point]
55 | CN(C)C(=O)CCSc1nnc(-c2ccncc2)o1 | inactive
56 | Cc1ccc(C(=O)Nc2ccc(C(=O)O)cc2)cc1S(=O)(=O)NCc1ccccc1 | inconclusive: 18.5 µM [inhibitor, single point]
57 | Cc1ccc(S(=O)(=O)C(C#N)=C2N(C)c3ccccc3N2C)cc1 | inconclusive: 11.7 µM [inhibitor, partial curve]
58 | O=C(COc1ccc2c3c(c(=O)oc2c1)CCC3)NC1CCN(Cc2ccccc2)CC1 | inconclusive: 18.5 µM [inhibitor, single point]
59 | COCCN(CCOC)c1cc(C)c(C#N)c2nc3ccccc3n12 | active: 10.4 µM
60 | Cc1cccc(OC(=O)NCCOC(=O)N(O)c2ccc(Cl)cc2)c1 | active: 7.38 µM
61 | O=C(CCN1C(=O)[C@@H]2Cc3ccccc3CN2C1=O)NCCc1ccccc1 | inconclusive: 9.28 µM [inhibitor, partial curve, poor fit]
62 | Cc1[nH]c2ccccc2c1/C=N/NC(=O)c1cccc(S(=O)(=O)Nc2cccc(C(F)(F)F)c2)c1 | inactive
63 | COc1ccc(Cl)cc1N(CC(=O)NCCSc1ccccn1)S(=O)(=O)c1ccccc1 | active: 1.65 µM
64 | COC(=O)c1ccc(/C=C(\C#N)c2ccccn2)cc1 | inactive
65 | CCC1C(=O)N(c2nc(C)cc(C)n2)N=C1C (configuration not stated) | inactive
66 | CCn1c(SCC(=O)Nc2oc(-c3ccccc3)c(-c3ccccc3)c2C#N)nnc1-c1cc(OC)cc(OC)c1 | inactive
67 | O=C(O)CN=C(NS(=O)(=O)c1ccc(Cl)cc1)c1ccccc1 | inconclusive: 2.33 µM [inhibitor, partial curve, poor fit]
68 | O=C(CN1C(=O)NC2(CCCCCC2)C1=O)Nc1ccc(Br)cc1Br | inactive
69 | COc1ccc(C(=O)N/N=C(\C)Cn2cnc([N+](=O)[O-])n2)cc1 | inactive
70 | CCCCn1c(N)c(N(CCOC)C(=O)c2cccc(-n3cnnn3)c2)c(=O)[nH]c1=O | inactive
71 | Cc1noc(C)c1COc1ccc(C(=O)OCC(=O)c2ccc3c(c2)OCCO3)cc1 | inactive
72 | COc1ccccc1C1C=C(c2ccc(Cl)cc2)Nc2nc(N3C(=O)CCC3=O)nn21 (configuration not stated) | inactive
